This is one part of the list.

The record followed here is article PMC7819943, “Rice protein-binding microarrays: a tool to detect cis-acting elements near promoter regions in rice”.

In this test the target is T1, OsSMF1 (Oryza sativa, UniProt Q6ZLB0 1-436).
T1 sequence: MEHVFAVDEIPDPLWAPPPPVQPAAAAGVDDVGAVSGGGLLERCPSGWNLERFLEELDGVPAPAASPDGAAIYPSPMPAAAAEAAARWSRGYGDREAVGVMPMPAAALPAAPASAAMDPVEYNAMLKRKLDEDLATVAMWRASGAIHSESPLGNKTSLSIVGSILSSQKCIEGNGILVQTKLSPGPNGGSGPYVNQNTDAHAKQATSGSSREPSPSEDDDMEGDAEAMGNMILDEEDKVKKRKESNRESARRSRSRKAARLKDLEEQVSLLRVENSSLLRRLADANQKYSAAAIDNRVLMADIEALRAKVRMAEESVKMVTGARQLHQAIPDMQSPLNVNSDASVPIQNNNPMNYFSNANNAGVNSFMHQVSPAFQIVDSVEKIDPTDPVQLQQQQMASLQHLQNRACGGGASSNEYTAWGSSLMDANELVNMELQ
The test can be described thus: protein-binding microarray (RPBM); PBS, 2% BSA, 51.3 ng/ul salmon testes DNA, 50 uM zinc acetate, 200 nM TF, 25 C, 1 h; high values mean tight binding. To be noted: protein: recombinant; tags: N-terminal polyhistidine and DsRed monomer fusion (pET32a); chain copies: 2; label: CyDye5-dUTP incorporated in the synthesized complementary strand; 3' TTTTT single-stranded linker to array surface; dsDNA, one strand shown. An outline of the steps:
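Ni–NTA purification followed expression in E. coli BL21-CodonPlus of transcription factors fused N-terminally to a polyhistidine tag and DsRed. At 200 nM in PBS with 2% BSA, salmon testes DNA and 50 µM zinc acetate, the protein was incubated for 1 h at 25 °C with a custom Agilent array that had been primer-extended with Cy5-dUTP and blocked with 2% BSA. After washing, the array was read on an Axon 4000B scanner. The binding signal is per-feature fluorescence intensity in arbitrary units.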
As for “GAGCTCCGCCAGTACGAGTACAGACCCAGCTTCGCCGGCGCGGAGTCACCTAGTGCAG”, the binding signal was 3580 fluorescence intensity (a.u.).
The result for “ACCGCCGGTCCACTCACCCCTAACCCTAGCCGCTGCCGCCCGGAGTCACCTAGTGCAG” reads 4020 fluorescence intensity (a.u.).
In the case of “CACAACTGCACGTATTGCGTCGCCAATGTCATCGCTAACTCGGAGTCACCTAGTGCAG” it was 4190 fluorescence intensity (a.u.); in that of “GTAGTCCTGGTGACTGGTCAAAGTGATGTGTGCATAATCTCGGAGTCACCTAGTGCAG”, 5300 fluorescence intensity (a.u.).
Turning to “GTTGCCCACGTCCACCCAATCCTCCTCCATCCACGGCGGCCGGAGTCACCTAGTGCAG”, the binding signal is 3700 fluorescence intensity (a.u.).
In the case of “TTTATCAAATATTTTGTTCCAAAGCTTACATAAGCATATGCGGAGTCACCTAGTGCAG” it was 3320 fluorescence intensity (a.u.); in that of “GGCGGCGAGGAGAGTCGCAACGACAGGTCATGGGTGCGGACGGAGTCACCTAGTGCAG”, 3790 fluorescence intensity (a.u.).
The result for “ACCCTGGCTGAATGGTTTAACTCCAGCTGGCAGGCTGGTGCGGAGTCACCTAGTGCAG” reads 4370 fluorescence intensity (a.u.).
Consider “TGTGTTCTCAATTTTGCGTGTTCTCAATGACACGTGAACACGGAGTCACCTAGTGCAG”, for which the binding signal was 5630 fluorescence intensity (a.u.).
In the case of “AAAATAGACATCCTGAAACACGTAGTCGCCGTGGCCGTGGCGGAGTCACCTAGTGCAG” it was 3710 fluorescence intensity (a.u.); in that of “CTCGTGAGTCGTGAGACACTGAGGCCGGCCGGCGTACGTGCGGAGTCACCTAGTGCAG”, 3340 fluorescence intensity (a.u.).
The result for “TACTAACACCCACCCGGCCGTGCCGCTGCCGCCGTGTGCCCGGAGTCACCTAGTGCAG” reads 3580 fluorescence intensity (a.u.); that for “AGCTGTCACCGATTACACGTAGCCGAATTCCTTCCCTGTGCGGAGTCACCTAGTGCAG”, 7890 fluorescence intensity (a.u.); that for “TTGGAATGCTGAAATTATTAGGGGACTATTCAAATTGATGCGGAGTCACCTAGTGCAG”, 39200 fluorescence intensity (a.u.).
Take “CACTCCCGTCCTGAGGCCATCGACGCTTCCCATATAATTTCGGAGTCACCTAGTGCAG”: the binding signal is 4070 fluorescence intensity (a.u.).
In the case of “ACCCCTGCGAATATATAATTTCCCCGCGAGGCCGCGAGCCCGGAGTCACCTAGTGCAG” it was 47700 fluorescence intensity (a.u.); in that of “AGATTATGCACATGTCATTGACTCATTCTGAAAGCAAATTCGGAGTCACCTAGTGCAG”, 3660 fluorescence intensity (a.u.).
Take “TGGCTGTTAAAAGGCCGACTGACGGAGGTCCAACCCTATGCGGAGTCACCTAGTGCAG”: the binding signal is 3300 fluorescence intensity (a.u.).
With “TGACTCTGCCGTGTGAGTGCTGACGCAATCAAGATCCAACCGGAGTCACCTAGTGCAG”, the binding signal is 6980 fluorescence intensity (a.u.).
In the case of “AGCTAATGAGCTAAACGCCCAGTCATTCAACACCGACCATCGGAGTCACCTAGTGCAG” it was 4740 fluorescence intensity (a.u.).
The result for “ACTGCTGCTATGGAAGCCTGTGACTCAGTTTGTGATATTCCGGAGTCACCTAGTGCAG” reads 6680 fluorescence intensity (a.u.); that for “TGATAGAGGGGATGAGTTTGGACGTCGGCACTCTAGCGACCGGAGTCACCTAGTGCAG”, 3290 fluorescence intensity (a.u.); that for “GAAGAAAGGCCTATAGAAGTCCTATGGGTTCCACACCTTGCGGAGTCACCTAGTGCAG”, 3340 fluorescence intensity (a.u.).
In the case of “CATGCAAACCAACTACAAAATGATGTATTGTGACTAATATCGGAGTCACCTAGTGCAG” it was 3470 fluorescence intensity (a.u.); in that of “GATCTACCCATGAACGACACATCACGGATACATCGGAATACGGAGTCACCTAGTGCAG”, 4340 fluorescence intensity (a.u.); in that of “ACGAAGCACCAACACTGGATACGCGTCAGGTAGGTGACAGCGGAGTCACCTAGTGCAG”, 3180 fluorescence intensity (a.u.).
As for “CTACCGGAATCTGGAACCCTCCACGTCATCGCCACCGCGGCGGAGTCACCTAGTGCAG”, the binding signal is 9780 fluorescence intensity (a.u.).
In the case of “TAGTGTCGCGTCACACTGTCTGCTGTTCGTCGCGCTCTAACGGAGTCACCTAGTGCAG” it was 7240 fluorescence intensity (a.u.); in that of “TGCCGTCCACGCCATTCGCGACCAGCCACCGTCCTCGCCTCGGAGTCACCTAGTGCAG”, 5070 fluorescence intensity (a.u.); in that of “ATTATCGATGCATGTGAGGATGACTTGGCATACTCACGAACGGAGTCACCTAGTGCAG”, 9880 fluorescence intensity (a.u.).
In the case of “CGTACTCCGTAGTCGGACGATCCAGTCATGTGTGTAGCATCGGAGTCACCTAGTGCAG” it was 4540 fluorescence intensity (a.u.); in that of “GAGTTGAGTTTAGACTTTCTAGAGTGGTATATGTATGTTTCGGAGTCACCTAGTGCAG”, 40900 fluorescence intensity (a.u.); in that of “CTTGTATGAGCAAGGTTGCTTGTGGCTCCAGTGATGGTCGCGGAGTCACCTAGTGCAG”, 30400 fluorescence intensity (a.u.).
In the case of “TGGGTTGCTTCTTCCAGCTCAGCCCTTCTTCTAGCACATTCGGAGTCACCTAGTGCAG” it was 8030 fluorescence intensity (a.u.); in that of “TTGACTACCACGTGGGATTTGCATAAACACATTAGAGCCACGGAGTCACCTAGTGCAG”, 6320 fluorescence intensity (a.u.).
In the case of “ACCCCAATCACTGACGCACCGGGCCCACGTAGCTCGACCCCGGAGTCACCTAGTGCAG”, the binding signal was 4950 fluorescence intensity (a.u.).
In the case of “AAAATTATACAACGCCGTGATGACTTGGAAGTACTTTAGCCGGAGTCACCTAGTGCAG” it was 4210 fluorescence intensity (a.u.); in that of “CAAGGAGGGAGTTGATGGTGGGATTGATCATGGGAGTTATCGGAGTCACCTAGTGCAG”, 3500 fluorescence intensity (a.u.); in that of “TAATTGTATGTTGCCAACCGTACGTGCTCAAAGTCAATTACGGAGTCACCTAGTGCAG”, 7810 fluorescence intensity (a.u.).
In the case of “CTACGAGGTAGAGTTGCAGACACGTCTATAGTAGCCGGACCGGAGTCACCTAGTGCAG” it was 3780 fluorescence intensity (a.u.).
Regarding “ATTGGGTTGGTCAAAAGACAGTCACGGTATGAGTGTTGTGCGGAGTCACCTAGTGCAG”, the binding signal is 3610 fluorescence intensity (a.u.).
The result for “TCCAACGTTTTGGTTTCAATCAGGAGATGACCCGTCAGGACGGAGTCACCTAGTGCAG” reads 3250 fluorescence intensity (a.u.).
